Laboratory results: the supplement of paper PMC6411743
± gives the standard deviation of the averaged measurements. The list shows a part of the results.

By UniProt entry, the sequences of proteins in these tests, tags left out. Where a name states a change or a piece, a line headed by the entry shows the natural chain unless it says otherwise.
UniProt P46013: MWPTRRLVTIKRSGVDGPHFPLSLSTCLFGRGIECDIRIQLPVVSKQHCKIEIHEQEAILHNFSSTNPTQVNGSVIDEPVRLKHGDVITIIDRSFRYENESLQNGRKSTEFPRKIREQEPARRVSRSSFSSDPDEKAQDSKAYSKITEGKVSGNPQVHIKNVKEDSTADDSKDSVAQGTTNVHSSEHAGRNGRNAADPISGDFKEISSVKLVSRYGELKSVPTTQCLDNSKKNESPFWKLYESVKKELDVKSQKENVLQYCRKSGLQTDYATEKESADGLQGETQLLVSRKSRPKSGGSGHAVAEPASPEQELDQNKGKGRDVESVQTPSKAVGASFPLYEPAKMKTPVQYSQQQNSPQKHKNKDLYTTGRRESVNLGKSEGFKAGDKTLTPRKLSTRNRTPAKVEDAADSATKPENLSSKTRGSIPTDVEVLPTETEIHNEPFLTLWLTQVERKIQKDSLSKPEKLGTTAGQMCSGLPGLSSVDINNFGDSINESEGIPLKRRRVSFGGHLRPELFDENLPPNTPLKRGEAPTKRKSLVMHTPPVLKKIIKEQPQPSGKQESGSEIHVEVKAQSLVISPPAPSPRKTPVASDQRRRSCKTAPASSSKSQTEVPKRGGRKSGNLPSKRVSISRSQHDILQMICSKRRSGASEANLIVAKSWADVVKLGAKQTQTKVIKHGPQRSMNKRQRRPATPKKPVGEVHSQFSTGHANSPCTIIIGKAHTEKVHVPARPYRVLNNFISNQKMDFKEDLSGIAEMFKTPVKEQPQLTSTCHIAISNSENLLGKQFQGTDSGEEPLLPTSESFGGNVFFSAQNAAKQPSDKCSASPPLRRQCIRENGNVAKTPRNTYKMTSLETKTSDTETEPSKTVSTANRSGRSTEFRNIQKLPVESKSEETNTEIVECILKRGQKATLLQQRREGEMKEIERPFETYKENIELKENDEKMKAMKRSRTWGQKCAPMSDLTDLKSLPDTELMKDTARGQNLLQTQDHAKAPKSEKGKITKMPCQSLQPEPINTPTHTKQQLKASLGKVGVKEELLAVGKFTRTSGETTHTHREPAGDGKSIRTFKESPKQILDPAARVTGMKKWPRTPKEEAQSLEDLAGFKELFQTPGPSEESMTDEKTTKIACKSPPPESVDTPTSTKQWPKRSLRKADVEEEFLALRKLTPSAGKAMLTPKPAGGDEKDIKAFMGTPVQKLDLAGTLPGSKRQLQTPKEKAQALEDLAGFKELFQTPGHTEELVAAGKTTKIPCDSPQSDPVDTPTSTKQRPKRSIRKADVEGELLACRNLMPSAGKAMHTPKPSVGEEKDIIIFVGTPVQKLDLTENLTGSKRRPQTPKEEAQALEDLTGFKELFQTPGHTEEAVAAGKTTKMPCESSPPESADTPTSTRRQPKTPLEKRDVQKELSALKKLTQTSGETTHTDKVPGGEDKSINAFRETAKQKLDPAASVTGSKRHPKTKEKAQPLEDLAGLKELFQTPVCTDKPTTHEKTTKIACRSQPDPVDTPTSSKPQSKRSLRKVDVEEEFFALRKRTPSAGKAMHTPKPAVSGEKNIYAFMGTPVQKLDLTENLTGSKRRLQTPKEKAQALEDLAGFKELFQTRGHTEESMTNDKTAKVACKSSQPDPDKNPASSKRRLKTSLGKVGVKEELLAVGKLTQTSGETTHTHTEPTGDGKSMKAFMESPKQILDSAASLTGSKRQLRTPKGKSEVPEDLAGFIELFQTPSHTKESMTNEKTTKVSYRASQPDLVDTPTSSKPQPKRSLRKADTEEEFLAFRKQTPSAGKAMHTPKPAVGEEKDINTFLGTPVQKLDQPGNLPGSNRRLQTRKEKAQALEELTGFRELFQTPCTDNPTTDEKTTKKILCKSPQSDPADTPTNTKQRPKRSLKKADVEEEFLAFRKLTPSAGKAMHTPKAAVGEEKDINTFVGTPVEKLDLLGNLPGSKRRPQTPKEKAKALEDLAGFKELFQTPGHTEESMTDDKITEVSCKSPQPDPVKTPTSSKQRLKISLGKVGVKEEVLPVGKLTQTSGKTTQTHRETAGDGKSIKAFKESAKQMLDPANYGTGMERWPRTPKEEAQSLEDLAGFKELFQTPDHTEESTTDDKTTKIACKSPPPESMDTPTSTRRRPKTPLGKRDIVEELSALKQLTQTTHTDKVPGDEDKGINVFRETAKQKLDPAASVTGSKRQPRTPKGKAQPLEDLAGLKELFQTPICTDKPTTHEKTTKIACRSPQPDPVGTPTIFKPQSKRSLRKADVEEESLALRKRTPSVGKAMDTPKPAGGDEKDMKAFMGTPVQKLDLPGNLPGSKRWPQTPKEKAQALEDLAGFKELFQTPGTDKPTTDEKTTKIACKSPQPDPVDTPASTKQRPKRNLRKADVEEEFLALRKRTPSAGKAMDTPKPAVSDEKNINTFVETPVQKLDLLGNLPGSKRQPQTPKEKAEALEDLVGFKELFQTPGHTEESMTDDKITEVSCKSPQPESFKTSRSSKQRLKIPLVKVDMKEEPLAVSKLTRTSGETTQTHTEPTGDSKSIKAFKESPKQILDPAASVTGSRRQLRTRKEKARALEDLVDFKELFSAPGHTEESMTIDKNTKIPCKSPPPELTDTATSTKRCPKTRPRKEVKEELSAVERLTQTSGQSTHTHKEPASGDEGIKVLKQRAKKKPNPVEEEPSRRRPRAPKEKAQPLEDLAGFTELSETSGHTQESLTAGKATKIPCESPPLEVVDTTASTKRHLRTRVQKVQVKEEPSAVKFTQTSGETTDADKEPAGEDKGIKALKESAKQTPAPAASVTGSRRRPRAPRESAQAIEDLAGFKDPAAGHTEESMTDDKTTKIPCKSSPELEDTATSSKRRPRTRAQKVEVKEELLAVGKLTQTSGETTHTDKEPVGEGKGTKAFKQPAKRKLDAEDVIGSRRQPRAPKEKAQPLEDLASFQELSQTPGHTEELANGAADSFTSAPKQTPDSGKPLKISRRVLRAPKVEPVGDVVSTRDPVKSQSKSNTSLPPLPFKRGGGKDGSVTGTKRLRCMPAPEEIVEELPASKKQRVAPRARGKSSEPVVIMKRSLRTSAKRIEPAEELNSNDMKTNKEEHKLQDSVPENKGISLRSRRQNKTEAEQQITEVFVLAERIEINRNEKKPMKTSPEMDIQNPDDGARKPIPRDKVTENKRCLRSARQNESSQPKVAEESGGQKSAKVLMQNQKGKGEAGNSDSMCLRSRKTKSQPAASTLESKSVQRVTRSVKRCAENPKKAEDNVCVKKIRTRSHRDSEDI
UniProt Q14241: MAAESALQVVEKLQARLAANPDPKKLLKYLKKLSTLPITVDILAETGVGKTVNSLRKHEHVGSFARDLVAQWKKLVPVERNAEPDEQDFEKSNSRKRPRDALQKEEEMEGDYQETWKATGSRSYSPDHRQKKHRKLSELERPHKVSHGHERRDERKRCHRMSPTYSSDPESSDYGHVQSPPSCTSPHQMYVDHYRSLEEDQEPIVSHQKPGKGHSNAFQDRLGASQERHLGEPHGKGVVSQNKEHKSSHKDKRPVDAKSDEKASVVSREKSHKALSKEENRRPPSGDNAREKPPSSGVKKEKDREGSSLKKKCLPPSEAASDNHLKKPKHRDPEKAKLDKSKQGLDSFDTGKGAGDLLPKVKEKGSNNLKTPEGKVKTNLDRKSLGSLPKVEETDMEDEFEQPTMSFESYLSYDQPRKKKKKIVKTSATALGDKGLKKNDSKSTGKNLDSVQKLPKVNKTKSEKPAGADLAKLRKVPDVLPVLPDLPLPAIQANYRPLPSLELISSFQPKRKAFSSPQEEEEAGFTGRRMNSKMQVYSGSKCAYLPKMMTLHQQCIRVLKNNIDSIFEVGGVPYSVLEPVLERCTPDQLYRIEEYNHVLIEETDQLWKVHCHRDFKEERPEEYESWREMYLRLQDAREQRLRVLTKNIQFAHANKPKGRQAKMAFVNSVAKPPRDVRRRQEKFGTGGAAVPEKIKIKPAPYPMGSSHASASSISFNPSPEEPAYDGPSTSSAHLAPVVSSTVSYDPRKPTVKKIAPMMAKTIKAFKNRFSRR
UniProt O43617, whole entry: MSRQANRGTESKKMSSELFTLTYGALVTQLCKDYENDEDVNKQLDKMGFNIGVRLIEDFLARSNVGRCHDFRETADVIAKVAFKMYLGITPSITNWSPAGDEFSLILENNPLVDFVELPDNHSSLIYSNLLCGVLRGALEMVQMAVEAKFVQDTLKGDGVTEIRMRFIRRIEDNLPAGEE
UniProt Q00610: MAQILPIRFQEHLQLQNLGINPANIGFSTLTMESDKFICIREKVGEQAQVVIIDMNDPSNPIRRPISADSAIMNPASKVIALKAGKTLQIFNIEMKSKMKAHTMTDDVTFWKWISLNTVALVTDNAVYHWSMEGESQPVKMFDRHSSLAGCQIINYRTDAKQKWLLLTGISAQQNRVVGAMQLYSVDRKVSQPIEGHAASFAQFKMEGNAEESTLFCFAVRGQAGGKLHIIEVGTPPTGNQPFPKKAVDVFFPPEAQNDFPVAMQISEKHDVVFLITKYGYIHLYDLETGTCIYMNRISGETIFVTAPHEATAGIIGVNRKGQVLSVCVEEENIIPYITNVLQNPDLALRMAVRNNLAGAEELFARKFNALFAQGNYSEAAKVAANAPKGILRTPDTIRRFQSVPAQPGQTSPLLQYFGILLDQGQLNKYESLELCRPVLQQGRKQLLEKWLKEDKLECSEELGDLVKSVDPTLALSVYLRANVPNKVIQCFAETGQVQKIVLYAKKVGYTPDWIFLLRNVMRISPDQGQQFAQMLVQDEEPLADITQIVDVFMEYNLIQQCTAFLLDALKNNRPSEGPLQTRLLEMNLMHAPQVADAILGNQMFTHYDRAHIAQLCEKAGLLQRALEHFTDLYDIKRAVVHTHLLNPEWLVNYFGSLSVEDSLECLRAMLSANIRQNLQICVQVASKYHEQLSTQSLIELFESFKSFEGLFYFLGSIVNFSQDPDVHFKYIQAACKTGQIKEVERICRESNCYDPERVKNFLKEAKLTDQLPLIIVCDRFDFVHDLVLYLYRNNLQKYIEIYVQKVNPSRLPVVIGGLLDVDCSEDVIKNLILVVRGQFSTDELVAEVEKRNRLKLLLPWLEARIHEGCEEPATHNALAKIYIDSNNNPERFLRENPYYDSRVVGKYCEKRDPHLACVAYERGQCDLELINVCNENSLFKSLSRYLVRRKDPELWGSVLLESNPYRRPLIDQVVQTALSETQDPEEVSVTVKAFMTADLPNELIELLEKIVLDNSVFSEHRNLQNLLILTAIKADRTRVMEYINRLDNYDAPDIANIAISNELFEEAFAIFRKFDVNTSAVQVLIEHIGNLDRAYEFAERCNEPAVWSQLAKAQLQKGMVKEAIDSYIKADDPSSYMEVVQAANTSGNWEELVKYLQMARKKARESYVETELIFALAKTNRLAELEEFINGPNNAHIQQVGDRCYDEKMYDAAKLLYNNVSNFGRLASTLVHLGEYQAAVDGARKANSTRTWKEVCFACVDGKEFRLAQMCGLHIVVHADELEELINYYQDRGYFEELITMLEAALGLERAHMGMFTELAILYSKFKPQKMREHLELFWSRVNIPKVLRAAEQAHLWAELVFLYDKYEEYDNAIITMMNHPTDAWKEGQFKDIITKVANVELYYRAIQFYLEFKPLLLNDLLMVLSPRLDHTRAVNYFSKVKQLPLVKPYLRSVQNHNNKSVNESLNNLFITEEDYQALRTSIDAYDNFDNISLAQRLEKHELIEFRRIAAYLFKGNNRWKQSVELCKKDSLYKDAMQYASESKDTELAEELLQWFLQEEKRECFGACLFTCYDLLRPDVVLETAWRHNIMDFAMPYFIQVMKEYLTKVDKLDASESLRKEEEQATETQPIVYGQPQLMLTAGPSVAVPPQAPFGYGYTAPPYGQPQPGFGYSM
UniProt P57105: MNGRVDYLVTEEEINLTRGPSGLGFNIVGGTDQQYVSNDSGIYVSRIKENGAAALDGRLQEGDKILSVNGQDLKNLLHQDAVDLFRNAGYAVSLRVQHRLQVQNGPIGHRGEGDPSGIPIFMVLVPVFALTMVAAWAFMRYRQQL
UniProt P01106: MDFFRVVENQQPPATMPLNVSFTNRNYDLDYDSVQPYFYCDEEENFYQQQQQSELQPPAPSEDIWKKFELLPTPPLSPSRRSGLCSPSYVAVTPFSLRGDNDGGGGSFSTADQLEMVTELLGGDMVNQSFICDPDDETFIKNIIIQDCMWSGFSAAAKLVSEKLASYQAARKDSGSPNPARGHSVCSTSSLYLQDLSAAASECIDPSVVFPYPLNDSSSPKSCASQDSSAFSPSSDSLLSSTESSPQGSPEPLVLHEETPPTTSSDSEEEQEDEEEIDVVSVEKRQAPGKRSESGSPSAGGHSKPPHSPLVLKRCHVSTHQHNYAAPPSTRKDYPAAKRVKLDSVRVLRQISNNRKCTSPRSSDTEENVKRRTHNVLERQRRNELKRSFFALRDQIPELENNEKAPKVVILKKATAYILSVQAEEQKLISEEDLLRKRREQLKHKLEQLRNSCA

Compound: Nc1nc2c(ncn2[C@@H]2O[C@H](COP(=O)(O)OP(=O)(O)OP(=O)(O)O)[C@@H](O)[C@H]2O)c(=O)[nH]1 [guanosine triphosphate]
Test: NP40-soluble protein abundance relative to vehicle (solubility fold change) (ratio); higher = more soluble protein in presence of GTP
Procedure, shortened: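 Crude Jurkat lysate, prepared by Dounce homogenisation, was exposed to eight concentrations from 0.1 to 10 mM for 10 min at room temperature and then 3 min at 37 °C. Solubilisation used 0.8% NP40 with benzonase for 60 min at 4 °C, followed by ultracentrifugation and TMT labelling of the supernatant for LC-MS/MS. After vsn normalisation of intensities, each value is the fold change against the detergent-processed vehicle within each replicate, across three independent experiments.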

Target: A0A087WV66|P46013 and related entries (UniProt P46013)
- NP40-soluble protein abundance (concentration: 0.1mM): 0.93 ± 0.047
- NP40-soluble protein abundance (concentration: 0.5mM): 0.942 ± 0.076
- NP40-soluble protein abundance (concentration: 1mM): 0.977 ± 0.069
- NP40-soluble protein abundance (concentration: 2mM): 0.957 ± 0.11
- NP40-soluble protein abundance (concentration: 4mM): 0.956 ± 0.11
- NP40-soluble protein abundance (concentration: 6mM): 0.987 ± 0.12
- NP40-soluble protein abundance (concentration: 8mM): 1.02 ± 0.078
- NP40-soluble protein abundance (concentration: 10mM): 1.03 ± 0.09

Target: A0A087WVA8|Q8IWB9 and related entries (UniProt Q8IWB9)
- NP40-soluble protein abundance (concentration: 0.1mM): 0.983 ± 0.079
- NP40-soluble protein abundance (concentration: 0.5mM): 0.892 ± 0.076
- NP40-soluble protein abundance (concentration: 1mM): 0.95074 ± 8.4e-05
- NP40-soluble protein abundance (concentration: 2mM): 0.958 ± 0.17
- NP40-soluble protein abundance (concentration: 4mM): 0.946 ± 0.078
- NP40-soluble protein abundance (concentration: 6mM): 0.9 ± 0.058
- NP40-soluble protein abundance (concentration: 8mM): 0.932 ± 0.017
- NP40-soluble protein abundance (concentration: 10mM): 0.89 ± 0.064

Target: A0A024RAC6 (UniProt Q14241)
- NP40-soluble protein abundance (concentration: 0.1mM): 0.949 ± 0.023
- NP40-soluble protein abundance (concentration: 0.5mM): 0.948 ± 0.023
- NP40-soluble protein abundance (concentration: 1mM): 1.04 ± 0.021
- NP40-soluble protein abundance (concentration: 2mM): 1.08 ± 0.028
- NP40-soluble protein abundance (concentration: 4mM): 1.1 ± 0.04
- NP40-soluble protein abundance (concentration: 6mM): 1.16 ± 0.041
- NP40-soluble protein abundance (concentration: 8mM): 1.2 ± 0.038
- NP40-soluble protein abundance (concentration: 10mM): 1.26 ± 0.043

Target: A0A087WWM0|O43617 and related entries (UniProt O43617)
- NP40-soluble protein abundance (concentration: 0.1mM): 0.927 ± 0.14
- NP40-soluble protein abundance (concentration: 0.5mM): 0.89 ± 0.11
- NP40-soluble protein abundance (concentration: 1mM): 0.928 ± 0.12
- NP40-soluble protein abundance (concentration: 2mM): 0.948 ± 0.11
- NP40-soluble protein abundance (concentration: 4mM): 0.925 ± 0.14
- NP40-soluble protein abundance (concentration: 6mM): 0.946 ± 0.087
- NP40-soluble protein abundance (concentration: 8mM): 0.82 ± 0.16
- NP40-soluble protein abundance (concentration: 10mM): 0.911 ± 0.11

Target: A0A024R644|O75503 (UniProt O75503)
- NP40-soluble protein abundance (concentration: 0.1mM): 0.927 ± 0.039
- NP40-soluble protein abundance (concentration: 0.5mM): 0.93 ± 0.081
- NP40-soluble protein abundance (concentration: 1mM): 0.909 ± 0.044
- NP40-soluble protein abundance (concentration: 2mM): 0.907 ± 0.032
- NP40-soluble protein abundance (concentration: 4mM): 0.897 ± 0.051
- NP40-soluble protein abundance (concentration: 6mM): 0.93 ± 0.041
- NP40-soluble protein abundance (concentration: 8mM): 0.857 ± 0.084
- NP40-soluble protein abundance (concentration: 10mM): 0.917 ± 0.088

Target: A0A087WV73|P46087 and related entries (UniProt P46087)
- NP40-soluble protein abundance (concentration: 0.1mM): 0.994 ± 0.047
- NP40-soluble protein abundance (concentration: 0.5mM): 1.02 ± 0.045
- NP40-soluble protein abundance (concentration: 1mM): 1.08 ± 0.036
- NP40-soluble protein abundance (concentration: 2mM): 1.17 ± 0.037
- NP40-soluble protein abundance (concentration: 4mM): 1.29 ± 0.055
- NP40-soluble protein abundance (concentration: 6mM): 1.39 ± 0.073
- NP40-soluble protein abundance (concentration: 8mM): 1.49 ± 0.083
- NP40-soluble protein abundance (concentration: 10mM): 1.67 ± 0.12

Target: A0A087WVQ6|Q00610 and related entries (UniProt Q00610)
- NP40-soluble protein abundance (concentration: 0.1mM): 1.04 ± 0.042
- NP40-soluble protein abundance (concentration: 0.5mM): 1.09 ± 0.075
- NP40-soluble protein abundance (concentration: 1mM): 1.01 ± 0.045
- NP40-soluble protein abundance (concentration: 2mM): 1.02 ± 0.067
- NP40-soluble protein abundance (concentration: 4mM): 0.991 ± 0.049
- NP40-soluble protein abundance (concentration: 6mM): 0.982 ± 0.057
- NP40-soluble protein abundance (concentration: 8mM): 0.943 ± 0.017
- NP40-soluble protein abundance (concentration: 10mM): 0.881 ± 0.052

Target: A0A087WU62|A0A087X2D5|A0A0G2JMS5|Q9BRJ2 (UniProt Q9BRJ2)
- NP40-soluble protein abundance (concentration: 0.1mM): 1.12 ± 0.036
- NP40-soluble protein abundance (concentration: 0.5mM): 1.09 ± 0.13
- NP40-soluble protein abundance (concentration: 1mM): 1.18 ± 0.13
- NP40-soluble protein abundance (concentration: 2mM): 1.2 ± 0.15
- NP40-soluble protein abundance (concentration: 4mM): 1.2 ± 0.18
- NP40-soluble protein abundance (concentration: 6mM): 1.14 ± 0.13
- NP40-soluble protein abundance (concentration: 8mM): 1.23 ± 0.17
- NP40-soluble protein abundance (concentration: 10mM): 1.16 ± 0.23

Target: A0A087WUM0 (UniProt P57105)
- NP40-soluble protein abundance (concentration: 0.1mM): 0.917 ± 0.082
- NP40-soluble protein abundance (concentration: 0.5mM): 0.889 ± 0.099
- NP40-soluble protein abundance (concentration: 1mM): 0.932 ± 0.06
- NP40-soluble protein abundance (concentration: 2mM): 0.889 ± 0.083
- NP40-soluble protein abundance (concentration: 4mM): 0.885 ± 0.1
- NP40-soluble protein abundance (concentration: 6mM): 0.89 ± 0.11
- NP40-soluble protein abundance (concentration: 8mM): 0.881 ± 0.15
- NP40-soluble protein abundance (concentration: 10mM): 0.885 ± 0.099

Target: A0A087WUS5|H0YBT0 and related entries (UniProt P01106)
- NP40-soluble protein abundance (concentration: 0.1mM): 0.9543 ± 0.0078
- NP40-soluble protein abundance (concentration: 0.5mM): 0.981 ± 0.13
- NP40-soluble protein abundance (concentration: 1mM): 1.03 ± 0.056
- NP40-soluble protein abundance (concentration: 2mM): 0.973 ± 0.032
- NP40-soluble protein abundance (concentration: 4mM): 1.1 ± 0.15
- NP40-soluble protein abundance (concentration: 6mM): 1.11 ± 0.068
- NP40-soluble protein abundance (concentration: 8mM): 0.967 ± 0.047
- NP40-soluble protein abundance (concentration: 10mM): 0.991 ± 0.021

Target: A0A087WVN8|Q13043 (UniProt Q13043)
- NP40-soluble protein abundance (concentration: 0.1mM): 0.95 ± 0.053
- NP40-soluble protein abundance (concentration: 0.5mM): 0.953 ± 0.058
- NP40-soluble protein abundance (concentration: 1mM): 0.924 ± 0.073
- NP40-soluble protein abundance (concentration: 2mM): 0.887 ± 0.07
- NP40-soluble protein abundance (concentration: 4mM): 0.882 ± 0.068
- NP40-soluble protein abundance (concentration: 6mM): 0.891 ± 0.069
- NP40-soluble protein abundance (concentration: 8mM): 0.885 ± 0.064
- NP40-soluble protein abundance (concentration: 10mM): 0.866 ± 0.06

Target: A0A087WTT2|Q5JWB9 and related entries (UniProt Q96A57)
- NP40-soluble protein abundance (concentration: 0.1mM): 0.923 ± 0.011
- NP40-soluble protein abundance (concentration: 0.5mM): 0.971 ± 0.045
- NP40-soluble protein abundance (concentration: 1mM): 0.846 ± 0.028
- NP40-soluble protein abundance (concentration: 2mM): 0.725 ± 0.078
- NP40-soluble protein abundance (concentration: 4mM): 0.686 ± 0.09
- NP40-soluble protein abundance (concentration: 6mM): 0.703 ± 0.094
- NP40-soluble protein abundance (concentration: 8mM): 0.655 ± 0.13
- NP40-soluble protein abundance (concentration: 10mM): 0.703 ± 0.076

Target: A0A087WTU9|A0A087WZY3|Q8TCU4 and related entries (UniProt Q8TCU4)
- NP40-soluble protein abundance (concentration: 0.1mM): 1.02 ± 0.14
- NP40-soluble protein abundance (concentration: 0.5mM): 0.885 ± 0.064
- NP40-soluble protein abundance (concentration: 1mM): 1.09 ± 0.12
- NP40-soluble protein abundance (concentration: 2mM): 1.1 ± 0.031
- NP40-soluble protein abundance (concentration: 4mM): 1.06 ± 0.083
- NP40-soluble protein abundance (concentration: 6mM): 1.04 ± 0.064
- NP40-soluble protein abundance (concentration: 8mM): 0.96 ± 0.13
- NP40-soluble protein abundance (concentration: 10mM): 1.15 ± 0.2
